In article PMC7335806 one finds binding data, which are given here for 2 substances.

Protein sequences, listed by entry. Tags and fused reporters are not part of them. Lines headed by an entry give the natural chain unless they say otherwise; changes in a name come on top. Chains listed by the source or under a name are the forms on record and can include a tag or linker. Residues count along the entry.
His-tagged human Sar1A (H79G) (Q9NR31, form named): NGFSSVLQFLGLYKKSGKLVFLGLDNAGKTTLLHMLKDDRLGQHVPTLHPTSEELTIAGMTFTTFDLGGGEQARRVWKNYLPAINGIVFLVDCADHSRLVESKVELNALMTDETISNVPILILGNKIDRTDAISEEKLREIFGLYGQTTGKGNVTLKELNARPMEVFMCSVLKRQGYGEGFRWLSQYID
UniProt O35161, residues 30-3034: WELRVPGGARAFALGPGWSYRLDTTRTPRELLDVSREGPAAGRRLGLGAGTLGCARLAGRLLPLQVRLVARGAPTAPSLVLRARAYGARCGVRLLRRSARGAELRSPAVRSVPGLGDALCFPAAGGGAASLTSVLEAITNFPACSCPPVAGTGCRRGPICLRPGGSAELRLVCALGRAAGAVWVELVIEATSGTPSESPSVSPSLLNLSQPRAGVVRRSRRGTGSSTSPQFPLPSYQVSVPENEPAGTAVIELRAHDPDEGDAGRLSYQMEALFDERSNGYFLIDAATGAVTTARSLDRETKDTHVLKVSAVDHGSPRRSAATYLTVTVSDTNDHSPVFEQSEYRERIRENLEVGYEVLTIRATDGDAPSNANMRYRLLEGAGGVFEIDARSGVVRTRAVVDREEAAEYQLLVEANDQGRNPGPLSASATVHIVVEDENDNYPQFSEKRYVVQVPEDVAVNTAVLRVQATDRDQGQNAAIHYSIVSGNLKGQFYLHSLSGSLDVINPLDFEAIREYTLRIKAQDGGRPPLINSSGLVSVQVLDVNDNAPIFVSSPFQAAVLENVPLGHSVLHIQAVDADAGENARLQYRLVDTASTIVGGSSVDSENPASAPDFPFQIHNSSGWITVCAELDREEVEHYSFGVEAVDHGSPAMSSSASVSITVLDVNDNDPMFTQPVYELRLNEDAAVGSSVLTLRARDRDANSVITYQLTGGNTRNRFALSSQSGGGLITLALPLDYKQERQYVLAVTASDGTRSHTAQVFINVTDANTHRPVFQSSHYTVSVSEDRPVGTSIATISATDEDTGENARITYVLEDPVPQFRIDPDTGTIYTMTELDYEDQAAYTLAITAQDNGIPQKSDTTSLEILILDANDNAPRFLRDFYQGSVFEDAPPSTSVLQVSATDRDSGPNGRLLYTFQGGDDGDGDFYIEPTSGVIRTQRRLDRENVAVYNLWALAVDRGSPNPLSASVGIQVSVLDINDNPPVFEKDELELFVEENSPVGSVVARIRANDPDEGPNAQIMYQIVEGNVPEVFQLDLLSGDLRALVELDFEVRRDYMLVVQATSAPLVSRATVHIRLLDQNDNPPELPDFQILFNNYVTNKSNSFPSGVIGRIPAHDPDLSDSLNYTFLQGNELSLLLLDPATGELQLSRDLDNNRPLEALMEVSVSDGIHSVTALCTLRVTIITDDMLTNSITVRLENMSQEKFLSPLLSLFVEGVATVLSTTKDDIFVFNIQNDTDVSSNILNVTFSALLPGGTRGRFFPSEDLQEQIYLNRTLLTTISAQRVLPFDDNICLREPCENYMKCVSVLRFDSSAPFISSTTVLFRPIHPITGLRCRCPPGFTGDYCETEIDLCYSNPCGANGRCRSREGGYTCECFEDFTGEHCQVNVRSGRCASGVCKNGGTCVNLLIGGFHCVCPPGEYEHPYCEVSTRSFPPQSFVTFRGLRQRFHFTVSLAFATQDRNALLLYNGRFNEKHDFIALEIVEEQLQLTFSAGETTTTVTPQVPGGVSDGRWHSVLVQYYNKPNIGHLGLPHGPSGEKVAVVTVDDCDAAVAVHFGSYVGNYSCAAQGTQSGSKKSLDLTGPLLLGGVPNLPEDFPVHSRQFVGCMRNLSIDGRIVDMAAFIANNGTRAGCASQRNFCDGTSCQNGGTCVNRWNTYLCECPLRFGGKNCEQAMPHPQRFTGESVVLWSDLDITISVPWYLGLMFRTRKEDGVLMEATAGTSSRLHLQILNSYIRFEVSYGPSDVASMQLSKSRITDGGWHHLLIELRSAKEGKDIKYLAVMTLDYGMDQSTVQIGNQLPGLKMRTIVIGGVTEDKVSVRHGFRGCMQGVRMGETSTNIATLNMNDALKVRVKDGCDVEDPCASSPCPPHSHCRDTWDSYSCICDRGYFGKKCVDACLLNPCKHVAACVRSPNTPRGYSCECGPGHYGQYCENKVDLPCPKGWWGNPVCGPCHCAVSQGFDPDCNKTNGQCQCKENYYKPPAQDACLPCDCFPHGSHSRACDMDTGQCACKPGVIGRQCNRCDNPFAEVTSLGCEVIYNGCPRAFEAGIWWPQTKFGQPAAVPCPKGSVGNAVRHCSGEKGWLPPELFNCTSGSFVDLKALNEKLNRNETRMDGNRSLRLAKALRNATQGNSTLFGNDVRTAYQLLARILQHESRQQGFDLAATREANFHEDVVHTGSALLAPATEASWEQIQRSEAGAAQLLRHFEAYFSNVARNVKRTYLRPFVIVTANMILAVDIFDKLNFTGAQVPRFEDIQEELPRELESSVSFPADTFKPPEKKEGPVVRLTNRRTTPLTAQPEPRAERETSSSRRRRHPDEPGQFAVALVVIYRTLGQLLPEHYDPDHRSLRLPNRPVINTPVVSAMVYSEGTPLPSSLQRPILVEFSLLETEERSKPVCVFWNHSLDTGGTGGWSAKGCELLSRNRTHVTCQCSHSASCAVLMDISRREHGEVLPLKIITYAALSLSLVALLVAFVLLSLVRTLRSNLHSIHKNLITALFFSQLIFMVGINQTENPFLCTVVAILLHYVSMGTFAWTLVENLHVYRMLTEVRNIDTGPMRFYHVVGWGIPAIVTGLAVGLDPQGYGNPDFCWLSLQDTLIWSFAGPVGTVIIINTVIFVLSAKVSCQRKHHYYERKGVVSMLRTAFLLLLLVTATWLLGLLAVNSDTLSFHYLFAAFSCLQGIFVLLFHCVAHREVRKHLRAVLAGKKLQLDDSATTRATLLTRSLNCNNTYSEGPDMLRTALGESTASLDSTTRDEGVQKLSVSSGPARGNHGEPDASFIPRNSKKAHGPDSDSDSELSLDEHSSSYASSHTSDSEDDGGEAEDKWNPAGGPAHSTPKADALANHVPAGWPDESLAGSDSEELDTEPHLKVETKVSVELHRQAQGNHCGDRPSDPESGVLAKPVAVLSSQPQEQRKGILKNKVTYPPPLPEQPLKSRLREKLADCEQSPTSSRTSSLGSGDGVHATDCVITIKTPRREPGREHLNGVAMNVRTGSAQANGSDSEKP

Results are given in words; binding and its absence hold for the method and conditions named. For some assays here: In cells and extracts the contact can be indirect. Some entries that bind do so weakly or less than the wild type. For some assays here: Where a sequence is shown, tags or fusion partners need not be part of it.

Experiment [1] has as its target T1, RRFR peptides (first intracellular loop of Fzd6) (mouse).
T1 sequence (peptide): VRRFRYPERPC
The experiment can be described thus: pull-down; peptides (5 nmol) covalently coupled to thiopyridone-Sepharose 6B beads via the C-terminal cysteine; 2 μg purified His-tagged Sar1A preincubated with 500 μM GTPγS in HK buffer (100 mM KCl, 20 mM Hepes pH 7.2); 1 h at 4 °C; immunoblotting; both purified.

Experiment [2] addresses T2, HA-tagged Fzd6 construct containing a FLAG tag in the C-terminal cytosolic domain (mouse) (UniProt Q61089).
T2 sequence: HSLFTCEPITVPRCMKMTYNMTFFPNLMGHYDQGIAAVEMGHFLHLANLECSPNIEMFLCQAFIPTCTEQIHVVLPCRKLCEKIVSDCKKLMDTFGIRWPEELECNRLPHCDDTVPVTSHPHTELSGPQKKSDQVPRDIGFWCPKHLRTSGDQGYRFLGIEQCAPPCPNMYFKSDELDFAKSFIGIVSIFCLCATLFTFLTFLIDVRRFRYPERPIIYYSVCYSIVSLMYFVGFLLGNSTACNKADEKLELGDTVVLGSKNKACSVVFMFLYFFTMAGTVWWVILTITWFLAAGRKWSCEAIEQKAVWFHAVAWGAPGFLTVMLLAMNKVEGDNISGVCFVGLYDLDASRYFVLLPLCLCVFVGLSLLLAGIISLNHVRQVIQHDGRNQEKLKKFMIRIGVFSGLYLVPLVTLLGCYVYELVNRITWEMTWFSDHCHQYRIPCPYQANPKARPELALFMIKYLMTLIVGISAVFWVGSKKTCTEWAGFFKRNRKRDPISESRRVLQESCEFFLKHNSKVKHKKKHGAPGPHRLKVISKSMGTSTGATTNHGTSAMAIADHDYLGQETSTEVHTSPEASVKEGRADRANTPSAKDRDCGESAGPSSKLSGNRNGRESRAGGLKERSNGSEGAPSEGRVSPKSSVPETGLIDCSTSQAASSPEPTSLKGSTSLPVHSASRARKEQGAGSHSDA
The experiment can be described thus: co-IP; lysates of HEK293T cells cotransfected with HA-Fzd6-FLAG and Celsr1-Myc on anti-FLAG M2-agarose in HKT buffer, 4 °C overnight; eluted with FLAG peptides; immunoblotting.

For “His-tagged human Sar1A (H79G) (from UniProt Q9NR31 10-198) (enzyme)”, the binding result in experiment [1] is “binds”.

As to “Myc-tagged mouse Celsr1 (from UniProt O35161 30-3034) (receptor)”, the binding entry in experiment [2] is on record as “binds”.
